The values below come from paper PMC4870573.

By UniProt entry, the sequences of proteins in these tests, tags left out.
UniProt Q02085: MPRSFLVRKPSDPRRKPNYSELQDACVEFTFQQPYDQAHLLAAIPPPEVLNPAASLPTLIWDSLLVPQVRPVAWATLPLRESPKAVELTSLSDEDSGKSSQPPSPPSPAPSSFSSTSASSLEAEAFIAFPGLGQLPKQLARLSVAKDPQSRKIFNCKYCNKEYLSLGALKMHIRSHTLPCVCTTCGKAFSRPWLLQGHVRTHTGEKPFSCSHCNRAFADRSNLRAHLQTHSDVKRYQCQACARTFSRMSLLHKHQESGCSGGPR

Results are given in words; binding and its absence hold for the method and conditions named. Binding seen in cells or lysates may run through a third protein. Some results given as binding are weak or reduced against the parent protein; the word gives no strength. Tags and fused reporters may be left off the sequences shown.

Experiment [1] has as its target T1, mouse Elongator protein 3, C-terminal Flag (pCS2+-C-Flag) (mouse) (UniProt Q9CZX0).
T1 sequence: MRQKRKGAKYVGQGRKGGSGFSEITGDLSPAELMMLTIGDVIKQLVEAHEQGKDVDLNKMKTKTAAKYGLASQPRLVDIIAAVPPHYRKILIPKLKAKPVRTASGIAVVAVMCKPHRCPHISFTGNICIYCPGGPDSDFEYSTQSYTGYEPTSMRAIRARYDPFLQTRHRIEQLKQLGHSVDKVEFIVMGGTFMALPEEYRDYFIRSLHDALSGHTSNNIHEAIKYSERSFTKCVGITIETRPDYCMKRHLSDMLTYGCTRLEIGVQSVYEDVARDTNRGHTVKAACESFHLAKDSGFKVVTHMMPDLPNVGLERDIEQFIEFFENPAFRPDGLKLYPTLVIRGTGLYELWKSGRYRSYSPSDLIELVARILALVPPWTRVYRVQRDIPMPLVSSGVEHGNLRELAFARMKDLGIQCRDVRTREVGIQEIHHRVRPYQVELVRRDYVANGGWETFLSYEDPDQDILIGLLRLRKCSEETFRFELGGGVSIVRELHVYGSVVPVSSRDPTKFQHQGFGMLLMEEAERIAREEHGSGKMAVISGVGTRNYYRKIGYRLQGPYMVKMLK
The experiment is described as follows: co-IP; HEK293 cells transfected with the indicated plasmids, 48 h, with or without MG132 for 6-8 h before harvest; lysis in 50 mM Tris-HCl pH 7.4, 150 mM NaCl, 5 mM EDTA, 1% Triton X-100; Flag-M2 beads, 4 °C, 4 h; Western blot with antibodies against the tags. A general note: Immunoblotting shows a protein as a band on a membrane.

Experiment [2] has as its target mouse Snail1, C-terminal Flag (pCS2+-C-Flag), full length (mouse) (UniProt Q02085). The experiment is described as above.
Experiment [3] concerns the target T1, mouse Elongator protein 3, C-terminal Flag (pCS2+-C-Flag) (mouse). The experiment is described as follows: co-IP; co-IP of mElp3 with xSlug (Supplementary Fig. S1a); cells and tags not told in the text shown.

As for “mouse Snail1, N-terminal Myc (pCS2+-N-Myc), full length (from UniProt Q02085 1-264)”, the binding result in experiment [1] is “binds”.

B1: mouse Elongator protein 3, N-terminal Myc (pCS2+-N-Myc) (enzyme, UniProt Q9CZX0-2 1-566)
chain: T1 sequence
For the molecule B1, in experiment [2], the binding result is given as “binds”.

B2: Xenopus Slug (Snail2) (protein, UniProt Q91924 1-266)
chain: MPRSFLVKKHFNSAKKPNYGELDNHTVIISPFLYERYPVSVLPQPDIYSSVAYSPITVWTGLLHPPLPSDLSPLSGYPSSLGRVSPPPQSDTSSKDHSGSESPISDEEERLQTKLSDSHAIEAEKFQCSLCSKTYSTFSGLAKHKQLHCDAQSRKSFSCKYCEKEYVSLGALKMHIRTHTLPCVCKICGKAFSRPWLLQGHIRTHTGEKPFSCPHCNRAFADRSNLRAHLQTHSDVKKYQCKNCSKTFSRMSLLHKHEESGCCVAH
In the case of B2, the binding entry in experiment [3] is reported as “binds”.
